In article doi:10.1101/2025.02.25.640159 one finds binding data, which are given here for four molecules.

In this test the target is RACK1A-GFP (RECEPTOR FOR … C KINASE 1A fused to GFP) (Arabidopsis thaliana) (UniProt O24456). Put plainly: affinity purification with mass spectrometry.

Results are given in words; binding and its absence hold for the method and conditions named. In cells and extracts the contact can be indirect. Here binding means that the protein was enriched with, or labelled near, the bait; the list need not be complete.

B1: FSD3 (enzyme, UniProt Q9FMX0 42-263)
chain: GGLKVEAYYGLKTPPYPLDALEPYMSRRTLEVHWGKHHRGYVDNLNKQLGKDDRLYGYTMEELIKATYNNGNPLPEFNNAAQVYNHDFFWESMQPGGGDTPQKGVLEQIDKDFGSFTNFREKFTNAALTQFGSGWVWLVLKREERRLEVVKTSNAINPLVWDDIPIICVDVWEHSYYLDYKNDRAKYINTFLNHLVSWNAAMSRMARAEAFVNLGEPNIPIA
As to B1, the binding entry was “binds”.

B2: FSD2 (enzyme, UniProt Q9LU64 47-305)
chain: GVITAGFELKPPPYPLDALEPHMSRETLDYHWGKHHKTYVENLNKQILGTDLDALSLEEVVLLSYNKGNMLPAFNNAAQAWNHEFFWESIQPGGGGKPTGELLRLIERDFGSFEEFLERFKSAAASNFGSGWTWLAYKANRLDVANAVNPLPKEEDKKLVIVKTPNAVNPLVWDYSPLLTIDTWEHAYYLDFENRRAEYINTFMEKLVSWETVSTRLESAIARAVQREQEGTETEDEENPDDEVPEVYLDSDIDVSEVD
As to B2, the binding result is given as “binds”.

B3: … SOD 1 (MSD1) (enzyme, UniProt O81235 30-231)
chain: TFTLPDLPYDYGALEPAISGEIMQIHHQKHHQAYVTNYNNALEQLDQAVNKGDASTVVKLQSAIKFNGGGHVNHSIFWKNLAPSSEGGGEPPKGSLGSAIDAHFGSLEGLVKKMSAEGAAVQGSGWVWLGLDKELKKLVVDTTANQDPLVTKGGSLVPLVGIDVWEHAYYLQYKNVRPEYLKNVWKVINWKYASEVYEKENN
Take B3: the binding result was “binds”.

B4: ASCORBATE PEROXIDASE 3 (enzyme, UniProt Q42564 1-287)
chain: MAAPIVDAEYLKEITKARRELRSLIANKNCAPIMLRLAWHDAGTYDAQSKTGGPNGSIRNEEEHTHGANSGLKIALDLCEGVKAKHPKITYADLYQLAGVVAVEVTGGPDIVFVPGRKDSNVCPKEGRLPDAKQGFQHLRDVFYRMGLSDKDIVALSGGHTLGRAHPERSGFDGPWTQEPLKFDNSYFVELLKGESEGLLKLPTDKTLLEDPEFRRLVELYAKDEDAFFRDYAESHKKLSELGFNPNSSAGKAVADSTILAQSAFGVAVAAAVVAFGYFYEIRKRMK
Turning to B4, the binding entry is reported as “binds”.
